Patent publication US20080207708A1, “Oxazole and Thiazole Compounds and Their Use in the Treatment of Pge2 Mediated Disorders” (GLAXO GROUP LIMITED, priority 2005, published 2008)
Counter-ions that a name gives are not always drawn. Some results were stated once for a whole list of compounds, not compound by compound.

Target: T1, EP3 receptors (Homo sapiens, UniProt P43115)
T1 construct: expressed in transfected cells; host or cells: CHO-K1 cells, pCIN vector
T1 sequence (P43115 1-390): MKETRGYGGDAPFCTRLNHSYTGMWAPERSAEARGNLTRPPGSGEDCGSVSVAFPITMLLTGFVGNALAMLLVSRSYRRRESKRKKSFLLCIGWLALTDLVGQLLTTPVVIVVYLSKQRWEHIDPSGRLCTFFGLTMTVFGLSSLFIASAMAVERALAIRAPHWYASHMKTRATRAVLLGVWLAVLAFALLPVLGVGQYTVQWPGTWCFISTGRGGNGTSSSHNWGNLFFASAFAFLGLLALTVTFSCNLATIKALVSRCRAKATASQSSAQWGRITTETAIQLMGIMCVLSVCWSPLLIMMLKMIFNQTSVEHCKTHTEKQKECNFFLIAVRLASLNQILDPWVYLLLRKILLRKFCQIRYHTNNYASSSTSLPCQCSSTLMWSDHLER
Test: human EP3 calcium mobilisation assay (CHO-K1 cells, FLIPR, PGE2)
Format: cell-based
Details: free bases or sodium salts; for functional pKi value, human EP3 calcium mobilisation assay: averages of a number of experiments

Structure (SMILES)	activity in a functional assay (human EP3 calcium mobilisation)	functional pKi value, human EP3 calcium mobilisation assay
CNCc1ccc2nc(-c3csc(Cc4cc(Cl)ccc4OCC(C)C)n3)[nH]c2c1.Cl [Example 126, ({2-[2-({5-Chloro-2-[(2-methylpropyl)oxy]phenyl}-methyl)-1,3-thiazol-4-yl]-1H-benzimidazol-5-yl}methyl)methylaminehydrochloride]	no activity	< 6.5
CC(C)COc1ccc(Cl)cc1Nc1nc(-c2nc3ccc(CN4CCCCC4)cc3[nH]2)cs1 [Example 182, N-{5-Chloro-2-[(2-methylpropyl)oxy]phenyl}-4-[5-(1-piperidinylmethyl)-1H-benzimidazol-2-yl]-1,3-thiazol-2-amine]	no activity	< 6.5
OCCc1ccc2nc(-c3csc(Cc4cc(Cl)ccc4OCc4ccccc4)n3)[nH]c2c1 [Example 153, 2-{2-[2-({5-Chloro-2-[(phenylmethyl)oxy]phenyl}methyl)-1,3-thiazol-4-yl]-1H-benzimidazol-5-yl}ethanol]	no activity	< 6.5
O=C([O-])Cc1coc(-c2cc(Cl)ccc2OCc2ccc(F)cc2Cl)n1.[Na+] [Example 81, [2-(5-chloro-2-{[(2-chloro-4-fluorophenyl)methyl]oxy}phenyl)-1,3-oxazol-4-yl]acetic acid]	no activity	< 6.5
CC(C)COc1ccc(Cl)cc1Cc1nc(-c2nc3ccc(CCN4CCN(C)CC4)cc3[nH]2)co1.Cl [Example 167, 2-[2-({5-chloro-2-[(2-methylpropyl)oxy]phenyl}methyl)-1,3-oxazol-4-yl]-5-[2-(4-methyl-1-piperazinyl)ethyl]-1H-benzimidazolehydrochloride]	no activity	< 6.5
CC(C)COc1ccc(Cl)cc1Cc1nc(-c2nc3cc(F)c(F)cc3[nH]2)cs1 [Example 155, 2-[2-({5-Chloro-2-[(2-methylpropyl)oxy]phenyl}methyl)-1,3-thiazol-4-yl]-5,6-difluoro-1H-benzimidazole]		< 6.5
CN(C)c1ccc2nc(-c3csc(Cc4cc(Cl)ccc4OCc4ccccc4)n3)[nH]c2n1.Cl [Example 152, 2-[2-({-5-Chloro-2-[(phenylmethyl)oxy]phenyl}methyl)-1,3-thiazol-4-yl]-N,N-dimethyl-1H-imidazo[4,5-b]pyridin-5-amine hydrochloride]	no activity	< 6.5
CNCc1ccc2nc(-c3csc(Nc4cc(Cl)ccc4OCC(C)C)n3)[nH]c2c1 [Example 179, N-{5-Chloro-2-[2-methylpropyl)oxy]phenyl}-4-{5-[(methylamino)methyl]-1H-benzimidazol-2-yl}-1,3-thiazol-2-amine hydrochloride]	no activity	< 6.5
CS(=O)(=O)NC(=O)c1csc(Cc2cc(Cl)ccc2OCc2ccc(F)cc2)n1 [Example 107, 2-[(5-Chloro-2-{[(4-fluorophenyl)methyl]-oxy)phenyl)methyl]-N-(methylsulfonyl)-1,3-thiazole-4-carboxamide]	no activity	< 6.5
Cc1nnc(-c2csc(Cc3cc(Cl)ccc3OCC(C)C)n2)[nH]1 [Example 158, 3-[2-({5-Chloro-2-[(2-methyl-propyl)oxy]-phenyl}methyl)-1,3-thiazol-4-yl]-5-methyl-1H-1,2,4-triazole]		< 6.5
CC(C)COc1ccc(Cl)cc1Cc1nc(-c2nc3cc(CN(C)C)ccc3[nH]2)co1 [Example 175, ({2-[2-({5-Chloro-2-[(2-methylpropyl)oxy]phenyl}methyl)-1,3-oxazol-4-yl]-1H-benzimidazol-5-yl}methyl)dimethylaminedihydrochloride]	no activity	< 6.5
Cl.Clc1ccc(OCc2ccccc2)c(Cc2nc(-c3nc4ccc(CN5CCCC5)cc4[nH]3)co2)c1 [Example 173, 2-[2-({5-chloro-2-[(phenylmethyl)oxy]phenyl}-methyl)-1,3-oxazol-4-yl]-5-(1-pyrrolidinylmethyl)-1H-benzimidazolehydrochloride]	no activity	< 6.5
CC(C)COc1ccc(Cl)cc1C(F)(F)c1nc(C(=O)[O-])cs1.[Na+] [Example 82, Sodium 2-[{5-chloro-2-[(2-methylpropyl)oxy]phenyl}(difluoro)methyl]-1,3-thiazole-4-carboxylate]	no activity	< 6.5
O=C([O-])Cc1coc(-c2cc(Cl)ccc2OCc2c(F)cc(F)cc2F)n1.[Na+] [Example 80, [2-(5-chloro-2-{[(2,4,6-trifluorophenyl)methyl]oxy}phenyl)-1,3-oxazol-4-yl]acetic acid]	no activity	< 6.5
CC(C)COc1ccc(Cl)cc1Cc1nc(-c2nc3ccc(N4CCN(C)CC4)cc3[nH]2)cs1.Cl [Example 142, 2-[2-({5-Chloro-2-[(2-methylpropyl)oxy]phenyl}methyl)-1,3-thiazol-4-yl]-5-(4-methyl-1-piperazinyl)-1H-benzimidazole hydrochloride]	no activity	< 6.5

The remaining lines, values ahead:

activity in a functional assay (human EP3 calcium mobilisation)	functional pKi value, human EP3 calcium mobilisation assay	Structure (SMILES)
no activity	< 6.5	Clc1ccc(OCc2ccccc2)c(Cc2nc(-c3nc4ncccc4[nH]3)cs2)c1 [Example 133, 2-[2-({5-Chloro-2-[(phenylmethyl)oxy]phenyl}methyl)-1,3-thiazol-4-yl]-1H-imidazo[4,5-b]pyridine]
no activity	< 6.5	O=C(NS(=O)(=O)c1ccccc1)c1csc(Cc2cc(Cl)ccc2OCc2ccccc2Cl)n1 [Example 104, 2-[(5-Chloro-2-{[(2-chlorophenyl)methyl]-oxy}phenyl)methyl]-N-(phenylsulfonyl)-1,3-thiazole-4-carboxamide]
no activity	< 6.5	O=C(NCc1cccnc1)c1csc(Cc2cc(Cl)ccc2OCc2ccccc2)n1 [Example 95, 2-({5-Chloro-2-[(phenylmethyl)oxy]phenyl}methyl)-N-(3-pyridinylmethyl)-1,3-thiazole-4-carboxamide]
no activity	< 6.5	CN(C)Cc1ccc(NC(=O)c2csc(Cc3cc(Cl)ccc3OCc3ccccc3)n2)cc1.Cl [Example 118, 2-({5-Chloro-2-[(phenylmethyl)oxy]phenyl}methyl)-N-{4-[(dimethylamino)methyl]phenyl}-1,3-thiazole-4-carboxamide hydrochloride]
no activity	< 6.5	O=C(Nc1csc(Cc2cc(Cl)ccc2OCc2ccccc2)n1)c1ccc(CO)cc1 [Example 112, N-[2-({5-chloro-2-[(phenylmethyl)oxy]phenyl}methyl)-1,3-thiazol-4-yl]-4-(hydroxymethyl)benzamide]
no activity	< 6.5	Clc1ccc(OCc2ccccc2)c(Cc2nc(-c3cn4ccccc4n3)cs2)c1 [Example 160, 2-[2-({5-Chloro-2-[(phenylmethyl)oxy]phenyl}methyl)-1,3-thiazol-4-yl]imidazo[1,2-a]pyridine]
no activity	< 6.5	CC(C)C(=O)Nc1csc(Cc2cc(Cl)ccc2OCc2ccccc2)n1 [Example 129, N-[2-({5-Chloro-2-[(phenylmethyl)oxy]phenyl}methyl)-1,3-thiazol-4-yl]-2-methylpropanamide]
	< 6.5	NC(=O)c1csc(Cc2cc(Cl)ccc2OCc2ccccc2)n1 [Example 90, 2-({5-Chloro-2-[(phenylmethyl)oxy]phenyl}methyl)-1,3-thiazole-4-carboxamide]
	< 6.5	O=C(Nc1nnn[nH]1)c1csc(Cc2cc(Cl)ccc2OCc2ccccc2)n1 [Example 98, 2-({5-Chloro-2-[(phenylmethyl)oxy]phenyl}methyl)-N-1H-tetrazol-5-yl-1,3-thiazole-4-carboxamide]
no activity	< 6.5	Clc1ccc(OCc2ccccc2)c(Cc2nc(-c3nnc[nH]3)cs2)c1 [Example 156, 3-[2-({5-Chloro-2-[(phenylmethyl)oxy]phenyl}methyl)-1,3-thiazol-4-yl]-1H-1,2,4-triazole]
